PubChem BioAssay AID1259424 | University of Nebraska Medical Center | 2018

- Screen: 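Seek colon cancer survival genes behaving like KSR1, using a six-gene signature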 (primary screen)
- Cells: human HCT116 colon cancer cells
- Reagents: siRNA pool against human genes, 50 nM
- Measurement: 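Six signature mRNAs by branched-DNA multiplex assay, scaled to two housekeeping genes and non-targeting median, log2; matched to mean KSR1 knockdown profile by Pearson correlation and euclidean distance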
- Scale: mean correlation with KSR1 profile: higher = expression change more like KSR1 knockdown; mean distance from KSR1 profile: higher = expression change less like KSR1 knockdown
The deposit covers about 14,000 reagents; this is a random part of them. 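Higher correlation or smaller distance means closer resemblance to KSR1 loss; control wells, including KSR1 knockdowns, recur on many plates.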 Not all columns of the deposit are shown. Not stated in the record: the time to read-out.

TINAG (GeneID 27283): mean correlation with KSR1 profile = 0.316; mean distance from KSR1 profile = 1.63
SLC17A2 (GeneID 10246): mean correlation with KSR1 profile = -0.53; mean distance from KSR1 profile = 2.01
RPS10 (GeneID 6204): mean correlation with KSR1 profile = -0.305; mean distance from KSR1 profile = 2.51
PRR3 (GeneID 80742): mean correlation with KSR1 profile = 0.268; mean distance from KSR1 profile = 1.68
CDH9 (GeneID 1007): mean correlation with KSR1 profile = 0.218; mean distance from KSR1 profile = 1.76

2 entries from above in another layout:
RPS10 (GeneID 6204)
- mean correlation with KSR1 profile: -0.305
- mean distance from KSR1 profile: 2.51

PRR3 (GeneID 80742)
- mean correlation with KSR1 profile: 0.268
- mean distance from KSR1 profile: 1.68

The listing continues:
NPY4R (GeneID 5540): mean correlation with KSR1 profile = -0.0556; mean distance from KSR1 profile = 2.33
SELENBP1 (GeneID 8991): mean correlation with KSR1 profile = 0.727; mean distance from KSR1 profile = 1.49
GDAP2 (GeneID 54834): mean correlation with KSR1 profile = -0.132; mean distance from KSR1 profile = 2.86
MTFP1 (GeneID 51537): mean correlation with KSR1 profile = -0.323; mean distance from KSR1 profile = 1.52
RGS10 (GeneID 6001): mean correlation with KSR1 profile = -0.215; mean distance from KSR1 profile = 1.38
NPM3 (GeneID 10360): mean correlation with KSR1 profile = -0.182; mean distance from KSR1 profile = 1.26
SEL1L2 (GeneID 80343): mean correlation with KSR1 profile = -0.566; mean distance from KSR1 profile = 5.02
